Results taken from article PMC6606649.
No constants are given. Whether binding was seen depends on the method and setting. Binding seen in cells or lysates may run through a third protein. A yes stands for co-enrichment or nearness to the bait. Other partners may have been found.

Protein sequences, listed by entry. Tags and fused reporters are not part of them. Residues count along the entry.
UniProt Q5T2D3: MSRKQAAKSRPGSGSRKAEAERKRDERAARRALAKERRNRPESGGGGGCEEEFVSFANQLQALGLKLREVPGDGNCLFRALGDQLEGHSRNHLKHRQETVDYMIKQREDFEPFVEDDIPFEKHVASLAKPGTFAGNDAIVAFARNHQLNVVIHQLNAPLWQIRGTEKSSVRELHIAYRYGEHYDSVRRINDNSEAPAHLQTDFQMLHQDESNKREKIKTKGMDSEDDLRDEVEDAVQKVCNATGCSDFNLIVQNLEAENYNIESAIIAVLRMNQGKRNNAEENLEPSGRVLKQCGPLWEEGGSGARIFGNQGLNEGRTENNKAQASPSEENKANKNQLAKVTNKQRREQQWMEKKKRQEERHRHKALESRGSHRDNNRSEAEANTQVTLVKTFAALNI
UniProt P11021, residues 19-654: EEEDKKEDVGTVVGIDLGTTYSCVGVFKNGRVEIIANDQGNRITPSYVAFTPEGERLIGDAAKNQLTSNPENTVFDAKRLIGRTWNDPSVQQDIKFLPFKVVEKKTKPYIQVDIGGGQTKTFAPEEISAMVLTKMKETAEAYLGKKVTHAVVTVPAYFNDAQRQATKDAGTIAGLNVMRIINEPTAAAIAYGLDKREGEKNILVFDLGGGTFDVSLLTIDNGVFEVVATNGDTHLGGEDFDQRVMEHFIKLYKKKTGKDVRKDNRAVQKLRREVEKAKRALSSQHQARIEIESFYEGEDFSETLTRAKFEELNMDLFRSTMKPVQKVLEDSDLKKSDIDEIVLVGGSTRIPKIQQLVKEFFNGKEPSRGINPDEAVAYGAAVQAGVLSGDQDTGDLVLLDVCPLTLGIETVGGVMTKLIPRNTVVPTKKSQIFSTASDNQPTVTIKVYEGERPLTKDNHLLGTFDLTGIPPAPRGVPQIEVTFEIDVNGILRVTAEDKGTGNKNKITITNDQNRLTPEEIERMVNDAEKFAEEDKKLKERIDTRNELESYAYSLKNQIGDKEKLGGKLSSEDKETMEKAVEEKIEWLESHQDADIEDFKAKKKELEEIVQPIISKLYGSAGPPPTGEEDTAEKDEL
UniProt Q14258: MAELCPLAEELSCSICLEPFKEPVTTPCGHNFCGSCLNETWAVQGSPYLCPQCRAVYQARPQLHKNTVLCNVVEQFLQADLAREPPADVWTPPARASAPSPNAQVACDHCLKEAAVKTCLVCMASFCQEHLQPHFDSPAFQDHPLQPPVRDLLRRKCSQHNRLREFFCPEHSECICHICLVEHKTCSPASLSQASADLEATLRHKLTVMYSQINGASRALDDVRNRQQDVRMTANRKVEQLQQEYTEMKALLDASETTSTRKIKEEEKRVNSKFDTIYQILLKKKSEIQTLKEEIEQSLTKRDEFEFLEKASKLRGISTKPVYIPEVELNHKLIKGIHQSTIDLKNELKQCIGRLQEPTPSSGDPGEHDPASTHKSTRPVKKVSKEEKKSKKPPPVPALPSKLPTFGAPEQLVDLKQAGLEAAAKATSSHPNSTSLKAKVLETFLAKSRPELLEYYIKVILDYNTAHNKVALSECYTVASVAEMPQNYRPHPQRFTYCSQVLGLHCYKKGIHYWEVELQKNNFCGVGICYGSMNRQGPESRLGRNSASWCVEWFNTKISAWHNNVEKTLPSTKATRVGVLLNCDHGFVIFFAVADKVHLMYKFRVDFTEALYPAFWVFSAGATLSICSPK
UniProt P67809: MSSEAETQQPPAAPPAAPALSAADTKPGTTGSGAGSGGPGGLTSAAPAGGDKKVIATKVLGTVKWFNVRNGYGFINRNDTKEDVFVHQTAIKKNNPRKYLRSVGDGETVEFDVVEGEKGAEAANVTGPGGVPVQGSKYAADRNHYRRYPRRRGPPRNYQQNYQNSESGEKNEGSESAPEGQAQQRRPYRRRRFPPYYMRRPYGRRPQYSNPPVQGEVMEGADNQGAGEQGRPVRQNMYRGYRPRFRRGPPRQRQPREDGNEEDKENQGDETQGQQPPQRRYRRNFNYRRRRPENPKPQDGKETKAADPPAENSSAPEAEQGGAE

Molecular target: OTUD3 (bait of the mass spectrometry analysis) (human) (UniProt Q5T2D3)
Assay: affinity purification with mass spectrometry; OTUD3 immunoprecipitated with Protein A-G agarose from HEK293T cells; IP buffer 50 mM Tris-HCl pH 8.0, 100 mM NaCl, 1 mM EDTA, 1% Nonidet P40; in-gel digestion, LC-MS/MS

binding | Substance
binds | GRP78 in HEK293T lysate (from UniProt P11021 19-654)
binds | Trim25 (in HEK293T lysate) (from UniProt Q14258 1-630)
binds | YB1 (in HEK293T lysate) (from UniProt P67809 1-324)
